Measured values published in patent US20200030355A1, “COMBINATION THERAPY FOR TREATING CANCER” (Epizyme, Inc., priority 2014, published 2020).

How the values were obtained:
[1] = system: MOLM-13 (MLL-AF9); assay: Combination proliferation study with Compound A2 (ATP/CellTiter-Glo, Chou-Talalay combination index); assay type: cell-based, human; conditions: 7 Day Cotreatment Model, Table 4
Description: (§1) The acute myelogenous leukemia cell lines MV4-11 (MLL-AF4) and MOLM-13 (MLL-AF9) were obtained from American Type Culture Collection (ATCC; Rockville, Md.) and Deutsche Sammlung von Mikroorganismen and Zellkulturen (DSMZ; Braunschweig, Germany) respectively.
(§2) Studies were performed using MLL-rearranged cell lines in vitro to evaluate the anti-proliferative effect of a combination of two agents together on cell growth. Initial proliferation studies were performed to determine the IC50 of a given compound in each cell line. The cell counts were measured by ATP quantitation using the Promega Cell Titer Glo kit and luminescence values corresponded to the amount of ATP in a given well.
(§3) Compounds were evaluated for synergy in the co-treatment phase by testing the compounds in a concentration range which was bracketed around their IC50 values. […]
(§4) The drug combination analysis was performed utilizing the Chou-Talalay method Synergy was determined using the software package Calcusyn by Biosoft. The combination index (CI) is a quantitative term used to describe the level of synergy or antagonism in a given test system. […]
(§5) Graphs representing values of combination index (CI) versus Fractional effect (Fa) known as Fa-CI plots were generated and synergy was evaluated. […]
Cell viability was measured via ATP content using CellTiter-Glo® (Promega). […]

[2] = system: MV4-11 (MLL-AF4); assay: as above; assay type: cell-based, human; conditions: 7 Day Cotreatment Model, Table 4
Description: as §1, §2, §3, §4, §5
Viability was determined using CellTiter-Glo® (Promega). […]

What does the source list for `O=C1OCCN1/N=C/c1ccc([N+](=O)[O-])o1` [Furazolidone]?
Combination with Compound A2, MOLM-13 (MLL-AF9) [1]: Combination Benefit; Combination with Compound A2, MV4-11 (MLL-AF4) [2]: Synergy (Drug synergy was statistically defined by CI values less than 1)
